Test results published in patent EP0182608B1, “Polycyclic compounds, their preparation and formulations containing them” (priority 1984, dated 1986).

Test system: P388/0 tumor cells
Experiment: Lymphocytic Leukemia P388/0 Test
Assay type: in vivo, CD2-F₁ mice
Conditions: intraperitoneally on days 1, 5 and 9 relative to tumor implant; mice injected i.p. with 10⁶ viable P388/0 cells on day 0
From the text: Methods for evaluating the antitumor activity of these compounds are essentially those used in the Tumor Panel by the Development Therapeutics Program, Division of Cancer Treatment, National Cancer Institute, A. Goldin, et al., Methods in Cancer Research, Vol. XVI, p. 165, Academic Press (1979). Some modifications, in dose level and schedule have been made to increase the testing efficiency.
CD2-F₁ mice, of the same sex weighing within 20±3g, are used for this test. Control and test animals are injected intraperitoneally with a suspension of 10⁶ viable P388/0 tumor cells on day 0. In each test several dose levels which bracket the LD₂₀ for the compound are evaluated; each dose level group contains 6 animals. The test compounds are prepared either in physiologic saline containing 0.05% Tween 80 or distilled water containing 5% dextrose and are administered intraperitoneally on days, 1, 5, and 9 relative to tumor implant. Doses are on a mg/kg basis according to individual animals' body weights. the day of death for each animal is recorded, the median identified for each group and the ratios of median survival time for treated (T)/control (C) groups are calculated. The criterion for activity is T/C x 100 ≧120%.

Compound | Optimal Dose [mg/kg]
CC(CO)(CO)NCc1cccc2cc3c(cc12)oc1ccccc13 [Example 6B, 2-[(Benzo[b]naphthol[2,3-d]furan-7-ylmethyl)amino]-2-methyl-1,3-propanediol methanesulphonate 1/4 hydrate] | 55
CC(CO)(CO)NCc1cc2c3ccccc3oc2c2ccccc12 [Example 5B] | 125
